These are yes or no findings as the source states them, for the method shown. Binding seen in cells or lysates may run through a third protein. Some binding calls cover weakened binding; strength is not graded here.

Protein sequences, listed by entry. Tags and fused reporters are not part of them. Lines headed by an entry give the natural chain unless they say otherwise; changes in a name come on top. Chains listed by the source or under a name are the forms on record and can include a tag or linker. Residues count along the entry.
UniProt P18510, residues 26-177: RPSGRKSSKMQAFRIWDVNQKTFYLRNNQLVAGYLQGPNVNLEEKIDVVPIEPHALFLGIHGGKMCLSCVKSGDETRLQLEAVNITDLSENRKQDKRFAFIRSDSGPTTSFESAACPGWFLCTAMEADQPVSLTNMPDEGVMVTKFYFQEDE
Flag-tagged control wild-type IL-1R1 protein (P14778, residues 18-569): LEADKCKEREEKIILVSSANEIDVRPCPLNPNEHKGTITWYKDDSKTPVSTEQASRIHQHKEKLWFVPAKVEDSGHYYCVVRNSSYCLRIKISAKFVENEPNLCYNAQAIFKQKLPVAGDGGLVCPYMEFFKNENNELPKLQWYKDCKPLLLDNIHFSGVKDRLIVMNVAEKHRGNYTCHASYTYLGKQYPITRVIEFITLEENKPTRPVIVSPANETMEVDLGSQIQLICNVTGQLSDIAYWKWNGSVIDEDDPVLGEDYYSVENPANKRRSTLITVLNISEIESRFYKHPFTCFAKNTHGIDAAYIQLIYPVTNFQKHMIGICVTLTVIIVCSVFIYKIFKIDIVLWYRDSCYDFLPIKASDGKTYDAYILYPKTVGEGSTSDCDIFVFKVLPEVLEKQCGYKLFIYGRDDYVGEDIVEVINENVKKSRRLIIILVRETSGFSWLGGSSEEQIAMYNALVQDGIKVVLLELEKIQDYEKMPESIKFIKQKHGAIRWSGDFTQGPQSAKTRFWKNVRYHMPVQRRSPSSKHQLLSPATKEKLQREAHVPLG
Myc-tagged K131H mutant IL-1R1 protein (P14778, form named): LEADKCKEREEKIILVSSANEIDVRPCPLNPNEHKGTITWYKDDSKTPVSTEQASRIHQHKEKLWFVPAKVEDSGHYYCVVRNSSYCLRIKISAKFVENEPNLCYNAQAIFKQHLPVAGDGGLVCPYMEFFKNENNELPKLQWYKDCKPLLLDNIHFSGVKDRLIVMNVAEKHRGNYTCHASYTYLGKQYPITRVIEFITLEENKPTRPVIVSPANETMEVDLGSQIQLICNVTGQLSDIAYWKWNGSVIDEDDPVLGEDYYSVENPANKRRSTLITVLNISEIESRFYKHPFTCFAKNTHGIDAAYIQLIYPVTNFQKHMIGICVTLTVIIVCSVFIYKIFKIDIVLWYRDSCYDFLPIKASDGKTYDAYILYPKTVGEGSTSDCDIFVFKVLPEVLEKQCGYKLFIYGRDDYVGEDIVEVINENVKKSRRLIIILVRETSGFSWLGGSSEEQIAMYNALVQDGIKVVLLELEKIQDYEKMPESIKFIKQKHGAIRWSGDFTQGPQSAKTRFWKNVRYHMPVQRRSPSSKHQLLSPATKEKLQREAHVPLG
Myc-tagged K131R mutant IL-1R1 protein (P14778, form named): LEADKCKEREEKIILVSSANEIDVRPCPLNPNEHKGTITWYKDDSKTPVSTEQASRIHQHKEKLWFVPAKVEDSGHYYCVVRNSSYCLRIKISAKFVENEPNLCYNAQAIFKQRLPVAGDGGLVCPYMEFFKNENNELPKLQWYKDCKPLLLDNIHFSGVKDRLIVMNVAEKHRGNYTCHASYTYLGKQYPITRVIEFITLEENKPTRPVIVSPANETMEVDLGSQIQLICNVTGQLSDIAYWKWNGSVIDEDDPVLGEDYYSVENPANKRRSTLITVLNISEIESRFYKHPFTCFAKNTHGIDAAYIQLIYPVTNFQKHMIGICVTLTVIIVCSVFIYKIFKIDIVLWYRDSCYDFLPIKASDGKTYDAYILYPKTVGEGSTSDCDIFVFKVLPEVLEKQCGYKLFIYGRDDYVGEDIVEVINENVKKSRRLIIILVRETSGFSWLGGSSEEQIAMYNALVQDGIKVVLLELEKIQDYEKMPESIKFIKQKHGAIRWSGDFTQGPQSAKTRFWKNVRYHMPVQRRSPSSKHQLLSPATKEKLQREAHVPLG

The results in this text go back to EP4667484A1.

Experiment [1] addresses recombinant human IL-1Ra protein (Sino Biological) (human) (UniProt P18510). Put plainly: co-immunoprecipitation, anti-Myc beads, Western blot.
For experiment [2] the target is unchanged. In words: co-immunoprecipitation, anti-Flag beads, Western blot. (A western blot detects proteins with antibodies after separation by electrophoresis.)

With “Myc-tagged K131H mutant IL-1R1 protein (from UniProt P14778 18-569) (receptor)”, the binding entry in experiment [1] is listed as “binds”.

Regarding “Flag-tagged K131E mutant IL-1R1 protein (from UniProt P14778 18-569) (receptor)”, the binding result in experiment [2] is on record as “binds”.

Turning to “Myc-tagged control wild-type IL-1R1 protein (from UniProt P14778 18-569) (receptor)”, the binding result in experiment [1] is “binds”.

Consider “Myc-tagged K131D mutant IL-1R1 protein (from UniProt P14778 18-569) (receptor)”, for which, in experiment [1], the binding entry was “binds”.

Regarding “Myc-tagged K131E mutant IL-1R1 protein (from UniProt P14778 18-569) (receptor)”, the binding entry in experiment [1] is reported as “binds”.

Regarding “Myc-tagged K131R mutant IL-1R1 protein (from UniProt P14778 18-569) (receptor)”, the binding result in experiment [1] was “binds”.

On to “Flag-tagged control wild-type IL-1R1 protein (from UniProt P14778 18-569) (receptor)”, for which the binding result in experiment [2] is given as “binds”.
